Data taken from the supplement of paper PMC10727501.
This is one part of the list. Repeats in this data set agree poorly, so a single value says little.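 Free-swimming zebrafish larvae were assessed for O-bend response probability to dark flashes (naive: first five; training: remaining flashes across four 60-flash blocks; test: later 60-flash block) and for OMR turning toward alternating leftward/rightward LED motion. Six treated larvae were compared against sixty 0.1% DMSO controls; hits required |SSMD|≥2.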

What was measured:
Settings in all cases: 10 µM; pre-incubation: 30-90 min
[1] = tested on: Danio rerio larvae (5 dpf, TLF); assay: OMR-Perf (SSMD vs DMSO vehicle); higher = higher than vehicle (e.g. higher dark-flash O-bend response probability, or better optomotor performance)
[2] = tested on: Danio rerio larvae (5 dpf, TLF); assay: Prob-Test (SSMD vs DMSO vehicle); higher = higher than vehicle (e.g. higher dark-flash O-bend response probability, or better optomotor performance)
[3] = tested on: Danio rerio larvae (5 dpf, TLF); assay: Prob-Naive (SSMD vs DMSO vehicle); higher = higher than vehicle (e.g. higher dark-flash O-bend response probability, or better optomotor performance)
[4] = tested on: Danio rerio larvae (5 dpf, TLF); assay: Prob-Train (SSMD vs DMSO vehicle); higher = higher than vehicle (e.g. higher dark-flash O-bend response probability, or better optomotor performance)

Row | SMILES | OMR-Perf [1] | Prob-Test [2] | Prob-Naive [3] | Prob-Train [4]
1 | Cc1cnc(C(=O)NCCc2ccc(S(=O)(=O)NC(=O)NC3CCCCC3)cc2)cn1 [Glipizide] | 0.473 | -0.446 | 0.26 | 0.213
2 | COC(=O)[C@H](c1ccccc1Cl)N1CCc2sccc2C1.O=S(=O)(O)O [Clopidogrel] | -0.66 | -1.38 | -1.1 | -1.95
3 | Cc1cc(Nc2ncnc3ccc(-c4ccc(CNCCS(C)(=O)=O)o4)cc23)ccc1Oc1ccn2ncnc2c1 [HER2-Inhibitor-1] | -0.69 | 0.404 | -0.17 | 0.229
4 | COC(=O)N1CCN(Cc2cccc(NC(=O)Nc3ccc(C)nc3)c2F)CC1 | 0.234 | 0.396 | -0.094 | 0.482
5 | O=NN(CCCl)C(=O)NC1CCCCC1 [Lomustine] | 0.477 | 0.257 | -0.538 | -0.644
6 | Nc1nc2c(ncn2[C@@H]2O[C@@H](CO)[C@@H](O)[C@H]2O)c(=O)[nH]1 [Guanosine] | -0.549 | -0.205 | 0.47 | -0.0843
7 | COc1cc([C@H]2c3cc4c(cc3[C@@H](O[C@@H]3O[C@@H]5CO[C@@H](C)O[C@H]5[C@H](O)[C@@H]3O)[C@H]3COC(=O)[C@H]23)OCO4)cc(OC)c1O [Etoposide] | 0.0931 | 0.0299 | -0.205 | 0.649
8 | N[C@H](Cc1ccccc1)C(=O)O [D-Phenylalanine] | 0.0698 | 0.477 | -0.0763 | 0.223
9 | CC(C)c1nc(N(C)S(C)(=O)=O)nc(-c2ccc(F)cc2)c1C=C[C@@H](O)C[C@@H](O)CC(=O)[O-].CC(C)c1nc(N(C)S(C)(=O)=O)nc(-c2ccc(F)cc2)c1C=C[C@@H](O)C[C@@H](O)CC(=O)[O-].[Ca+2] [Rosuvastatin Calcium] | -0.213 | -0.318 | -0.0555 | 0.0689
10 | O=C(/C=C/C=C/c1ccc2c(c1)OCO2)N1CCCCC1 [Piperine] | -0.722 | -2 | -2.4 | -2.81
11 | CS(=O)(=O)c1ccc(-c2cnc(N)c(C(=O)Nc3ccccc3)n2)cc1 | -0.0697 | -0.909 | -0.298 | -0.765
12 | CCN1CCN(C(=O)N[C@@H](C(=O)N[C@H]2C(=O)N3[C@@H]2SC(C)(C)[C@H]3C(=O)[O-])c2ccccc2)C(=O)C1=O.[Na+] [Piperacillin Sodium] | 0.129 | -0.212 | 0.147 | 0.169
13 | Cn1cnc(-c2cc3nccc(Oc4ccc(NC(=S)NC(=O)Cc5ccccc5)cc4F)c3s2)c1 | -0.693 | -0.575 | -0.0595 | -0.6
14 | O=C([O-])CC(O)(CC(=O)[O-])C(=O)[O-].[Li+].[Li+].[Li+] [Lithium Citrate] | -0.314 | 0.0877 | 0.444 | -0.0239
15 | O=C(Nc1ccccc1)c1ccccc1O [Salicylanilide] | -0.012 | -0.45 | -0.504 | -0.36
16 | CCS(=O)(=O)c1cccc(-c2cc(C(=O)NC3CCN(C)CC3)c(C)c3[nH]c4ncc(C)cc4c23)c1 | 1.05 | 0.31 | -0.0487 | 0.0617
17 | CS(=O)(=O)CCNCc1ccc(-c2ccc3ncnc(Nc4ccc(OCc5cccc(F)c5)c(Cl)c4)c3c2)o1.Cc1ccc(S(=O)(=O)O)cc1.Cc1ccc(S(=O)(=O)O)cc1 | -0.724 | -0.748 | -0.935 | -1.72
18 | Nc1ncnc2c1ncn2[C@@H]1O[C@@H](COP(=O)(O)OP(=O)([O-])OP(=O)([O-])O)[C@@H](O)[C@H]1O.[Na+].[Na+] [ATP (Adenosine-Triphosphate)] | 0.0258 | -0.132 | -0.142 | 0.0718
19 | O=C(O)/C=C/C(=O)O.OCCOCCN1CCN(C2=Nc3ccccc3Sc3ccccc32)CC1.OCCOCCN1CCN(C2=Nc3ccccc3Sc3ccccc32)CC1 [Quetiapine Fumarate] | -1.03 | -1.09 | 0.497 | -0.983
20 | Cc1ccc(NC(=O)c2ccc(CN3CCN(C)CC3)cc2)cc1Nc1nc(-c2cccnc2)cs1 [Masitinib (AB1010)] | 0.138 | -0.0499 | 0.147 | 0.14
21 | CCOC(=O)O[C@@]1(C(=O)OCCl)CC[C@H]2[C@@H]3CCC4=CC(=O)C=C[C@]4(C)[C@@H]3[C@H](O)C[C@@]21C [Loteprednol etabonate] | 0.0384 | 0.549 | 0.0939 | 0.501
22 | COc1ccc(COc2ccc(Cc3cnc(N)nc3N)cc2OC)cc1 | -0.655 | -0.283 | -0.0443 | -0.131
23 | c1cncc(CN2CCC(n3ncc4c(N5CCOCC5)nc(-c5ccc6[nH]ccc6c5)nc43)CC2)c1 | -0.124 | -0.655 | -0.375 | -0.879

Row | SMILES | OMR-Perf [1] | Prob-Test [2] | Prob-Naive [3] | Prob-Train [4]
24 | COc1ccc(-c2coc3cc(O)cc(O)c3c2=O)cc1 [Biochanin A] | -0.929 | -1.79 | -2.17 | -2.76
25 | O=C([O-])c1cc(=O)c2c(OCC(O)COc3cccc4oc(C(=O)[O-])cc(=O)c34)cccc2o1.[Na+].[Na+] [Disodium Cromoglycate] | 0.0682 | 0.0663 | 0.421 | 0.663
26 | c1ccc(NCc2ccc(CNc3ccccn3)cc2)nc1 | -0.558 | -0.251 | 0.134 | -0.352
27 | CN(C)[C@@H]1C(O)=C(C(N)=O)C(=O)[C@@]2(O)C(O)=C3C(=O)c4c(O)ccc(Cl)c4[C@@](C)(O)C3C[C@@H]12.Cl (some centres undefined) [Chlortetracycline HCl] | 0.778 | -0.497 | 0.28 | -0.347
28 | Cc1cc2c(cc1S(N)(=O)=O)S(=O)(=O)CCC2 [Meticrane] | 0.454 | 0.0812 | 0.153 | 0.0852
29 | C[C@](N)(Cc1ccc(O)c(O)c1)C(=O)O [Methyldopa (Aldomet)] | -0.291 | -0.538 | 0.448 | -0.347
30 | CN1CCc2nc(C(=O)N[C@H]3C[C@H](C(=O)N(C)C)CC[C@@H]3NC(=O)C(=O)Nc3ccc(Cl)cn3)sc2C1 [Edoxaban] | -0.232 | -0.089 | 0.584 | -0.251
31 | Cc1cnc(Nc2ccc(OCCN3CCCC3)cc2)nc1Nc1cccc(S(=O)(=O)NC(C)(C)C)c1 | -0.384 | -0.175 | 0.289 | 0.165
32 | Nc1nc(F)nc2c1ncn2[C@@H]1O[C@H](COP(=O)(O)O)[C@@H](O)[C@@H]1O [Fludarabine Phosphate] | -0.242 | 0.0841 | 0.0529 | -0.254
33 | CC[C@H](CO)Nc1nc(NCc2ccccc2)c2ncn(C(C)C)c2n1 [Roscovitine (Seliciclib,CYC202)] | -0.337 | -0.288 | -0.471 | -0.0957
34 | CCOC(=O)c1c(C)n(C)c2ccc(O)cc12 [Mecarbinate] | -0.115 | -0.584 | -0.435 | -0.271
35 | CC(C(O)c1ccc(O)cc1)N1CCC(Cc2ccccc2)CC1.CC(C(O)c1ccc(O)cc1)N1CCC(Cc2ccccc2)CC1.O=C(O)[C@H](O)[C@@H](O)C(=O)O (centres undefined) [Ifenprodil Tartrate] | -0.549 | -0.58 | 0.325 | -0.692
36 | CC(C(=O)O)c1ccc2c(c1)Cc1cccnc1O2 (centres undefined) [Pranoprofen] | 1.11 | 0.583 | -0.0225 | 0.0166
37 | COc1ccc2[n-]c(S(=O)Cc3ncc(C)c(OC)c3C)nc2c1.[Na+] (centres undefined) [Esomeprazole Sodium] | -0.222 | 0.0553 | -0.388 | -0.127
38 | CCc1nc(N)nc(N)c1-c1ccc(Cl)cc1 [Pyrimethamine] | 0.507 | -0.172 | 0.584 | 0.107
39 | Cn1c(=O)c2c(ncn2CC(O)CO)n(C)c1=O (centres undefined) [Dyphylline] | -0.781 | -0.455 | -0.258 | -0.0523
40 | Cc1[nH]c(/C=C2\C(=O)Nc3ccccc32)c(C)c1CCC(=O)O [TSU-68 (SU6668, Orantinib)] | 0.449 | -0.127 | -0.25 | -0.514
41 | O=C(O)c1cn(C2CC2)c2cc(N3CCNCC3)c(F)cc2c1=O [Ciprofloxacin (Cipro)] | 0.0265 | -0.0553 | -0.142 | -0.39
42 | C[C@]12CC[C@H]3c4ccc(O)cc4CC[C@H]3[C@@H]1C[C@@H](O)[C@H]2O [Estriol] | 0.229 | -0.225 | 0.374 | 0.362
43 | CNC(=O)c1cc(COc2nnc(Nc3ccc(Cl)cc3)c3ccoc23)ccn1 [Telatinib] | -0.613 | -0.136 | -0.397 | -0.24
44 | CC[C@H]1OC(=O)C[C@@H](O)[C@H](C)[C@@H](O[C@H]2O[C@H](C)[C@@H](O[C@H]3C[C@@](C)(O)[C@@H](O)[C@H](C)O3)[C@H](N(C)C)[C@H]2O)[C@@H](CC=O)C[C@@H](C)C(=O)/C=C/C(C)=C/[C@@H]1CO[C@@H]1O[C@H](C)[C@@H](O)[C@@H](OC)[C@H]1OC.O=C(O)[C@H](O)[C@@H](O)C(=O)O [Tylosin tartrate] | 0.0202 | -0.112 | 0.478 | -0.0204
45 | Cc1cc2c(F)c(Oc3ncnn4cc(OC[C@@H](C)O)c(C)c34)ccc2[nH]1 | -0.344 | -0.501 | -0.24 | -0.501
46 | CCn1cc(C(=O)O)c(=O)c2cc(F)c(N3CCN(C)CC3)cc21.CS(=O)(=O)O [Pefloxacin Mesylate] | 0.216 | -0.806 | 0.26 | -0.574

Looked up by compound from above, three records:
Row | SMILES | OMR-Perf [1] | Prob-Test [2] | Prob-Naive [3] | Prob-Train [4]
26 | c1ccc(NCc2ccc(CNc3ccccn3)cc2)nc1 | -0.558 | -0.251 | 0.134 | -0.352
25 | O=C([O-])c1cc(=O)c2c(OCC(O)COc3cccc4oc(C(=O)[O-])cc(=O)c34)cccc2o1.[Na+].[Na+] [Disodium Cromoglycate] | 0.0682 | 0.0663 | 0.421 | 0.663
43 | CNC(=O)c1cc(COc2nnc(Nc3ccc(Cl)cc3)c3ccoc23)ccn1 [Telatinib] | -0.613 | -0.136 | -0.397 | -0.24
